The text below walks through data of the supplement of paper PMC12819154, “High-throughput peptide-centric local stability assay extends protein–ligand identification to membrane proteins, tissues and bacteria” (Nature Structural & Molecular Biology, 2025).

Amino acid sequences for entries named in this document (tags omitted). A change or cut given only in a name is not applied to a line headed by its entry.
UniProt Q96MY1: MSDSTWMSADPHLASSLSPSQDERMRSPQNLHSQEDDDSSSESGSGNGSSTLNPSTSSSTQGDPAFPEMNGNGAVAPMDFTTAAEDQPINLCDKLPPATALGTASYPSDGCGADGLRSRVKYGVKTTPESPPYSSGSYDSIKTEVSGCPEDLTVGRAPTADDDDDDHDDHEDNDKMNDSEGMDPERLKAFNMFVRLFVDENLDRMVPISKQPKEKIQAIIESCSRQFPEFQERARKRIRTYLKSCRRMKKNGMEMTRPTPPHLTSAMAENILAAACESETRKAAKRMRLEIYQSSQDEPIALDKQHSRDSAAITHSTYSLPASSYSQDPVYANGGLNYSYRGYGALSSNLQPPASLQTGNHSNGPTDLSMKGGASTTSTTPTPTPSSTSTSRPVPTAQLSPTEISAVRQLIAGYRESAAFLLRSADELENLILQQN
UniProt Q96IZ7: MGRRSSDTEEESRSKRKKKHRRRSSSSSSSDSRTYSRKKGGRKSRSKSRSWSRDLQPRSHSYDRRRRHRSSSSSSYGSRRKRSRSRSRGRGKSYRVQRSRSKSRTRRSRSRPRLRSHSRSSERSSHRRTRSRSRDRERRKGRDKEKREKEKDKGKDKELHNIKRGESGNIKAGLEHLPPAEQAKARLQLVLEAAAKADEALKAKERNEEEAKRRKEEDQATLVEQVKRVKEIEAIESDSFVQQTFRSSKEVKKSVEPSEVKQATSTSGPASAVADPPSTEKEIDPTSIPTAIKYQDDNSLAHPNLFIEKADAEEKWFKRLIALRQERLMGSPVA
UniProt Q96Q05, whole entry: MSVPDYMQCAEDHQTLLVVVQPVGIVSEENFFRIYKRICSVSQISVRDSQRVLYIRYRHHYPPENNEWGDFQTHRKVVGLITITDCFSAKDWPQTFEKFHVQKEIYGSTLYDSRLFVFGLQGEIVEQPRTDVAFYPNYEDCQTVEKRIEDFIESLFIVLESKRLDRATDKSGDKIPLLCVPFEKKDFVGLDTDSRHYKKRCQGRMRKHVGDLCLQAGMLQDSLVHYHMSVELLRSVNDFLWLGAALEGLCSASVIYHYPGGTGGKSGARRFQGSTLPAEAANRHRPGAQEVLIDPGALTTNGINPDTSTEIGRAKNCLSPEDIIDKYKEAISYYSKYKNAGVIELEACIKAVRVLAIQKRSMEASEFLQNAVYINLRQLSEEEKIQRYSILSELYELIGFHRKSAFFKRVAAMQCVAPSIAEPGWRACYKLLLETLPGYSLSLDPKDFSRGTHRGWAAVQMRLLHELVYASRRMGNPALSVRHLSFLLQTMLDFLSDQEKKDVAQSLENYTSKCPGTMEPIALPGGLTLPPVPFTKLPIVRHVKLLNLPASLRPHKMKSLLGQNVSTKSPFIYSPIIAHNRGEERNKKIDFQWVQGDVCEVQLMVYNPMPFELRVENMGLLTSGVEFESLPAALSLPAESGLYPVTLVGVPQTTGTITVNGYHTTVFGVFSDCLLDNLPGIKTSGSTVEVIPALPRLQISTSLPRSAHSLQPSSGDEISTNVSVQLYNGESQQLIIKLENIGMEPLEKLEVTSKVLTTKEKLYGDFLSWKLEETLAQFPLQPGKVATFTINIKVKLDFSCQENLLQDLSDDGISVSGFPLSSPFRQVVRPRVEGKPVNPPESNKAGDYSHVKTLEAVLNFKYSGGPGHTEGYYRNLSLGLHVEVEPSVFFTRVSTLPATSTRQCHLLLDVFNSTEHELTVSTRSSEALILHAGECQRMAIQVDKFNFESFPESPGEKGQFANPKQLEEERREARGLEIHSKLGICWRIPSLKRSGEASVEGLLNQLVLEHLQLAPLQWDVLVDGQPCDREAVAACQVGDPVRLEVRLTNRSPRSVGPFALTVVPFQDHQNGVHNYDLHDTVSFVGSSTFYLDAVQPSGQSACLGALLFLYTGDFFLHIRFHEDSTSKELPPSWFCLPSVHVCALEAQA
UniProt Q96IT1: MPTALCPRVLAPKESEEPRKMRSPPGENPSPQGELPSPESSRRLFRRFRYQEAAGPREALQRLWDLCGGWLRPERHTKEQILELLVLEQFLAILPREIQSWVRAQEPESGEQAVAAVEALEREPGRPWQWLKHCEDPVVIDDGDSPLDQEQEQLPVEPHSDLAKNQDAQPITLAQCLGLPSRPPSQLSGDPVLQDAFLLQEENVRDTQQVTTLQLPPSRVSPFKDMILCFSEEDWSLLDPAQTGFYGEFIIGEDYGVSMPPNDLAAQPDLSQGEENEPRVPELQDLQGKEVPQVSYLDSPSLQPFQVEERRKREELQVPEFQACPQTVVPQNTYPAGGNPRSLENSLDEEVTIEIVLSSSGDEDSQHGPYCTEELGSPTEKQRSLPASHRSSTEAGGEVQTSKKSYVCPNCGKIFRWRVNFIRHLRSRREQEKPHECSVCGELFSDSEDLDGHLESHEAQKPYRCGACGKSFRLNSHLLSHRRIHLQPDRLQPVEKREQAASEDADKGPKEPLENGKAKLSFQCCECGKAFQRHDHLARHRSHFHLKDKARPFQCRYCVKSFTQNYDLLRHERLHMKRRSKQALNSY
UniProt Q96FZ2: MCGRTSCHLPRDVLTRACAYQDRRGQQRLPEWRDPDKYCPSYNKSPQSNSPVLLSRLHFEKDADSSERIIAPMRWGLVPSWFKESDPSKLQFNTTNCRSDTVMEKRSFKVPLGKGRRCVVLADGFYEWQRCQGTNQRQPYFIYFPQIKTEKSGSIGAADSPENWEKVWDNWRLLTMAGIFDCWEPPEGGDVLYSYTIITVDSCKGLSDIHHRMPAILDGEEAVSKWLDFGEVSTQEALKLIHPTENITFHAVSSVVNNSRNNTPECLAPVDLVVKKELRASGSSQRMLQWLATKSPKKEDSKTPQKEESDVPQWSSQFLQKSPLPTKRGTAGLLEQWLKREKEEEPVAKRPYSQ
UniProt Q96MI6: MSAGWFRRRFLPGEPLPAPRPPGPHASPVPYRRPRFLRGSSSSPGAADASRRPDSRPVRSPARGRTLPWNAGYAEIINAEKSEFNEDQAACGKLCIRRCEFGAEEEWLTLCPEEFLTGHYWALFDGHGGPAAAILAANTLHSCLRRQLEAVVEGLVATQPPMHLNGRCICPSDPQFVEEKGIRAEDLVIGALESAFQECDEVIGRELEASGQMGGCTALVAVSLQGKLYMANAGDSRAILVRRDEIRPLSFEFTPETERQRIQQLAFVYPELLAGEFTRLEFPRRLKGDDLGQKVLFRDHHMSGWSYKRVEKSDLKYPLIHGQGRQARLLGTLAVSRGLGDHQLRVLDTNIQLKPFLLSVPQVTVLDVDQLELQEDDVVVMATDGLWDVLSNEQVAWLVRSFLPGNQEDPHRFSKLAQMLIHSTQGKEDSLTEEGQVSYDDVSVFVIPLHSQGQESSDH
UniProt Q96HQ2: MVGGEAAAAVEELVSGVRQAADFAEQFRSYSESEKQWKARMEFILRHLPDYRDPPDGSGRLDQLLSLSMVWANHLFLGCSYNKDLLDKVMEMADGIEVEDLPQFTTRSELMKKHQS
UniProt Q96P48: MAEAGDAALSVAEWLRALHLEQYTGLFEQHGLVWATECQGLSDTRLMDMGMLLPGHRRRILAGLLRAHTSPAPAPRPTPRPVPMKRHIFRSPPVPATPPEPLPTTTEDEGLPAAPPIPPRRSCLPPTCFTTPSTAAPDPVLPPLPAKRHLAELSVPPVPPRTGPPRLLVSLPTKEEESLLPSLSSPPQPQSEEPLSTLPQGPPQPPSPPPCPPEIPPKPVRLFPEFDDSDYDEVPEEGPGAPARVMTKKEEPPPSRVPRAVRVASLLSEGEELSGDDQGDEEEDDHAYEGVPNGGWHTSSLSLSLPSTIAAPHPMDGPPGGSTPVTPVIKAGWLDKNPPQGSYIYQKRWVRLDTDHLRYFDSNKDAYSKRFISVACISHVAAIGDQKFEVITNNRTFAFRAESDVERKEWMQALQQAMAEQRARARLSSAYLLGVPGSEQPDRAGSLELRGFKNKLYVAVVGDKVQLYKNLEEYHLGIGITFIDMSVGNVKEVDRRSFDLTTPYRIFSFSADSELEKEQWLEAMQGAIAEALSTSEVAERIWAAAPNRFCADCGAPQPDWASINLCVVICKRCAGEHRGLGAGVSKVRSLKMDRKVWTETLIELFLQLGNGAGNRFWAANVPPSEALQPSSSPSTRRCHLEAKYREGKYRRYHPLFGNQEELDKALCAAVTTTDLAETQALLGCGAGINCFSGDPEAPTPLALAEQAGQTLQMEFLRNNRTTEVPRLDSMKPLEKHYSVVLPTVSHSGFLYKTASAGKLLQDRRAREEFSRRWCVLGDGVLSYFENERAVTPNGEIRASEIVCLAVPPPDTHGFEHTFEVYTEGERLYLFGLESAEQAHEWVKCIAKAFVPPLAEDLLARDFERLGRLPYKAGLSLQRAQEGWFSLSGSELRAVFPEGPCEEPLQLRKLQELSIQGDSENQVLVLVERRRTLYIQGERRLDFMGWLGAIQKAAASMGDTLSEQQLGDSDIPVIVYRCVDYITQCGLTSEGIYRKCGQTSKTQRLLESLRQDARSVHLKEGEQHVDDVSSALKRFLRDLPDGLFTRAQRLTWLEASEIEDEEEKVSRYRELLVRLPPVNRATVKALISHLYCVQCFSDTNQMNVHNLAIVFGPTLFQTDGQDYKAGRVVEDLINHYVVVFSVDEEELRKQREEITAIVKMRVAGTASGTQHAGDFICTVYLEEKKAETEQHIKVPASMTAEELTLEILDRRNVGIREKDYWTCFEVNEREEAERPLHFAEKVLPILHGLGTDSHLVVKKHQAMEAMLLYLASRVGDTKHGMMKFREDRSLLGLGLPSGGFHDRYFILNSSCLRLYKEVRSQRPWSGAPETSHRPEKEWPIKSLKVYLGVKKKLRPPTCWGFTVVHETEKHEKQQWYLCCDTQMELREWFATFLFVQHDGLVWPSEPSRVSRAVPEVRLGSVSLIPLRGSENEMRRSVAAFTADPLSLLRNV
UniProt Q96K31: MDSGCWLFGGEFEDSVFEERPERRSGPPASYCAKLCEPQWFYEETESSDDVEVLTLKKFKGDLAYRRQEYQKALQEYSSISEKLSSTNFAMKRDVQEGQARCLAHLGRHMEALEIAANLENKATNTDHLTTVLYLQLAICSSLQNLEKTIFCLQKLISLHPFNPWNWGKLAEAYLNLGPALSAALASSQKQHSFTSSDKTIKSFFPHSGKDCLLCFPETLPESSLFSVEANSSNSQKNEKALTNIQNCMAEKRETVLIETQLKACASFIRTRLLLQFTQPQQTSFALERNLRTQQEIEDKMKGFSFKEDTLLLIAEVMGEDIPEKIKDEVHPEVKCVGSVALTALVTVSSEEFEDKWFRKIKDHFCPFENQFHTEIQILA
UniProt Q96NC0: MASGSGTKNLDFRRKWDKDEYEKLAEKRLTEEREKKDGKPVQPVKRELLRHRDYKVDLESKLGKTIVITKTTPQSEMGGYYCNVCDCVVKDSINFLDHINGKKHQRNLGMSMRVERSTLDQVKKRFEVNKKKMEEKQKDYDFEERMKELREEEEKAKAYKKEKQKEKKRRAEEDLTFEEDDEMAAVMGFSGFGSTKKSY
UniProt Q96RU3: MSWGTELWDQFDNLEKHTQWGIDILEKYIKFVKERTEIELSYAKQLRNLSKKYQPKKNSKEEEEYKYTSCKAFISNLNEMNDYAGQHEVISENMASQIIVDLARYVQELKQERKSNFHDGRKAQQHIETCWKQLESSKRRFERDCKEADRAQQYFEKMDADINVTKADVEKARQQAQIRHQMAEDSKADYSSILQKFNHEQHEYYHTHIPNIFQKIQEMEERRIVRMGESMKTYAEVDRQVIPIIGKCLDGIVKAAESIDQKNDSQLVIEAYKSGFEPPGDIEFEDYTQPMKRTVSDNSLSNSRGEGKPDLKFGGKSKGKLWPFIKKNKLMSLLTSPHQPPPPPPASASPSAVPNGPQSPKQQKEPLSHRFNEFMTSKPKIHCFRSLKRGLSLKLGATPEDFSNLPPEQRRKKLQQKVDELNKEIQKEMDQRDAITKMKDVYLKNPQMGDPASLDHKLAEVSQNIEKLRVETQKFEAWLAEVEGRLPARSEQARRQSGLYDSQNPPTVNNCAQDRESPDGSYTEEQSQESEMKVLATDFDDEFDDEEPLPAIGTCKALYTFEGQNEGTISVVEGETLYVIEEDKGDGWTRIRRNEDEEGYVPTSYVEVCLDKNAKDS
UniProt Q96GQ5: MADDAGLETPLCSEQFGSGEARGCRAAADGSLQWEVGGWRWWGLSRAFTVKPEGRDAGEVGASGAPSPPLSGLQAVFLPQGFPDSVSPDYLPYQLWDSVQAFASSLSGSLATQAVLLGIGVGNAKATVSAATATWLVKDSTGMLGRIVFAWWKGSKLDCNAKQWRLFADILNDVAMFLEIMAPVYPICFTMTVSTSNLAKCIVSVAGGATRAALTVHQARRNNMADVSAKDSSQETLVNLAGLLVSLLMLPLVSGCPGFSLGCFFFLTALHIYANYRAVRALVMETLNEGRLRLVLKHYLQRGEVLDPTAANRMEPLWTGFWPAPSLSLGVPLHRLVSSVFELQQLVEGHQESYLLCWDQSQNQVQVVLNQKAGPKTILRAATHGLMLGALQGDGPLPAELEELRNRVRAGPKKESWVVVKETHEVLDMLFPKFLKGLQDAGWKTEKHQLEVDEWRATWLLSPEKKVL

The other results are listed elsewhere or left out. Small differences around the control level are noise.

Compound in this assay: Cc1nc(Nc2ncc(C(=O)Nc3c(C)cccc3Cl)s2)cc(N2CCN(CCO)CC2)n1 [dasatinib]
The experiment in a line: log2 fold change of tryptic peptide abundance, ligand vs vehicle (limited proteolysis) (log2 ratio); higher = more trypsin-susceptible (destabilized). As to conditions: ligand concentration: 5 uM; sample: K562 cleared lysate.
Regarding “UniProt Q96GE5 (peptide sequence: AFSYHNSLQTHER, peptide start residue: 149)”, the log2 fold change is -1.14.
The result for “UniProt Q96MY1 (peptide sequence: AFNMFVR, peptide start residue: 189)” reads 0.11.
For the target “RSRC1 (peptide sequence: LQLVLEAAAK, peptide start residue: 187) (UniProt Q96IZ7)”, the log2 fold change came out at 0.115.
Under “UniProt Q96Q05 (peptide sequence: RFQGSTLPAEAANR, peptide start residue: 270)” stands 0.0725.
The result for “UniProt Q96H40 (peptide sequence: SSHLTTHK, peptide start residue: 273)” reads -0.0109; that for “TGS1 (peptide sequence: KLYNLGLK, peptide start residue: 37) (UniProt Q96RS0)”, -0.0904; that for “PWWP2A (peptide sequence: NSVVAEKK, peptide start residue: 327) (UniProt Q96N64)”, 0.638.
In the case of “CNDP2 (peptide sequence: TVFGVEPDLTR, peptide start residue: 403) (UniProt Q96KP4)”, the log2 fold change came to 0.059.
Turning to “SNX27 (peptide sequence: SESGYGFNVR, peptide start residue: 49) (UniProt Q96L92)”, the log2 fold change was -0.226.
The result for “CNOT6L (peptide sequence: ELLLNNNLLR, peptide start residue: 106) (UniProt Q96LI5)” reads 0.409; that for “METTL2A (peptide sequence: NNEDGPGLIMEEQHK, peptide start residue: 128) (UniProt Q96IZ6)”, 0.363; that for “UniProt Q96IT1 (peptide sequence: IHLQPDRLQPVEKR, peptide start residue: 484)”, 0.457.
Regarding “ALPK1 (peptide sequence: SASWSSDSGRPK, peptide start residue: 719) (UniProt Q96QP1)”, the log2 fold change came out at 0.281.
The result for “UniProt Q96RK0 (peptide sequence: VRPPPLKK, peptide start residue: 1333)” reads -0.433.
Under “ATXN7L3B (peptide sequence: DFGIQPVEDK, peptide start residue: 58) (UniProt Q96GX2)” stands -0.0433; under “UniProt Q96FZ2 (peptide sequence: ACAYQDR, peptide start residue: 17)”, 0.281.
Under “LTV1 (peptide sequence: AIADHLFWSEETK, peptide start residue: 225) (UniProt Q96GA3)” stands -0.0811; under “UBE2E2 (peptide sequence: GDNIYEWR, peptide start residue: 87) (UniProt Q96LR5)”, -0.116; under “CAPNS2 (peptide sequence: LGFEEFK, peptide start residue: 159) (UniProt Q96L46)”, -0.092.
For “SPAG5 (peptide sequence: RSPACSSLTPSLCK, peptide start residue: 42) (UniProt Q96R06)”, the log2 fold change was -0.462.
Turning to “UniProt Q96L03 (peptide sequence: KKENDAAVK, peptide start residue: 30)”, the log2 fold change was -0.304.
Under “UniProt Q96MI6 (peptide sequence: GSSSSPGAADASR, peptide start residue: 39)” stands 0.0751.
Under “PGM2 (peptide sequence: IVLANDPDADRLAVAEK, peptide start residue: 317) (UniProt Q96G03)” stands -0.159; under “THOC3 (peptide sequence: RPLLAFACDDKDGK, peptide start residue: 319) (UniProt Q96J01)”, 0.318; under “CDKN2AIPNL (peptide sequence: QAADFAEQFR, peptide start residue: 19) (UniProt Q96HQ2)”, -0.415.
Under “ARAP1 (peptide sequence: DLPDGLFTR, peptide start residue: 1037) (UniProt Q96P48)” stands -0.301; under “UniProt Q96PX1 (peptide sequence: YQANNCPICR, peptide start residue: 308)”, -0.911; under “UniProt Q96PC5 (peptide sequence: IFQMNEER, peptide start residue: 804)”, -0.486.
For the target “C8orf76 (peptide sequence: SGPPASYCAK, peptide start residue: 25) (UniProt Q96K31)”, the log2 fold change is 0.136.
Under “CCDC138 (peptide sequence: LQCETAAQQK, peptide start residue: 191) (UniProt Q96M89)” stands -0.37; under “CAMKK2 (peptide sequence: AAPQDELGGR, peptide start residue: 14) (UniProt Q96RR4)”, 0.369; under “SCLT1 (peptide sequence: QKEEDIEK, peptide start residue: 356) (UniProt Q96NL6)”, -0.531.
The result for “EDC3 (peptide sequence: YRHDENILESEPIVYRR, peptide start residue: 244) (UniProt Q96F86)” reads -0.172.
Regarding “UniProt Q96NC0 (peptide sequence: RFEVNKK, peptide start residue: 125)”, the log2 fold change is 0.196.
The result for “FNBP1 (peptide sequence: QQKEPLSHR, peptide start residue: 362) (UniProt Q96RU3)” reads 0.201; that for “PRRC1 (peptide sequence: TDWHMAFTGMSR, peptide start residue: 410) (UniProt Q96M27)”, 0.294; that for “C16orf58 (peptide sequence: AFTVKPEGR, peptide start residue: 47) (UniProt Q96GQ5)”, -0.336.
